Publication PMC11359531, “Establishment of Dissolution Test Method for Multi-Components in Traditional Chinese Medicine Preparations Based on In Vitro–In Vivo Correlation” (Pharmaceuticals, 2024)
The amount applied is not stated for every result.

Assay: BCS classification from solubility and permeability
Details: based on permeability and solubility results

Compound | BCS Type
COc1c2ccoc2c(OC[C@@H](O)C(C)(C)O)c2oc(=O)ccc12 [Byakangelicin, byakangelicin] | BCS I
COc1cc2c(cc1OC)[C@H]1[C@@H](C)c3ccc(OC)c(OC)c3CN1CC2 [Corydaline, corydaline] | BCS I
COc1cc2c(cc1OC)[C@@H]1Cc3ccc(OC)c(OC)c3CN1CC2 [Tetrahydropalmatine, tetrahydropalmatine] | BCS I
COc1ccc2c(c1OC)CN(C)CCc1cc3c(cc1C(=O)C2)OCO3 [α-allocryptopine] | BCS I
protopine | BCS I
